Test results taken from publication PMC5540560.
Results are given in words; binding and its absence hold for the method and conditions named. In cells and extracts the contact can be indirect. Some entries that bind do so weakly or less than the wild type.

By UniProt entry, the sequences of proteins in these tests, tags left out.
UniProt P27338: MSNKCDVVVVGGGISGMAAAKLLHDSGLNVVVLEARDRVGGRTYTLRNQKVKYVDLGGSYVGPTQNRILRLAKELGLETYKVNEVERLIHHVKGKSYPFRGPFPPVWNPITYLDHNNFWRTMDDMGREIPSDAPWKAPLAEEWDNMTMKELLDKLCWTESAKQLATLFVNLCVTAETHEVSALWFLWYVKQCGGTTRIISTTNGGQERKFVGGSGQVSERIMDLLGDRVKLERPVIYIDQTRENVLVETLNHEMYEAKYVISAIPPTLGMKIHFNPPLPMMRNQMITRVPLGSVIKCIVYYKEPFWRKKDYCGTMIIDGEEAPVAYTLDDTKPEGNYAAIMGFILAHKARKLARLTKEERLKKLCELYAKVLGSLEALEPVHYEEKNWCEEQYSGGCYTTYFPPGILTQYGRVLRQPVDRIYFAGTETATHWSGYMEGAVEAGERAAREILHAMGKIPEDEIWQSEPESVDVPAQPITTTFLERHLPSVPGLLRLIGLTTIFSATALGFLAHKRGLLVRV

Target: monoamine oxidase B (human) (human (endogenous in postmortem human brain)) (UniProt P27338)
Test: co-IP; microsomes from postmortem human brain cortex preincubated with rabbit anti-MAO-B (M1821 or OB1418), protein A-Dynabeads; detection with anti-Nicastrin or anti-PS1 IgG

binding: binds
Substance: nicastrin (human) (from UniProt Q92542 34-709)
